For at least one compound, name, drawing or mass did not settle the structure.
Columns and labels:
[1] = biological target: T1, full-length PTP1B in SF9 lysate (Homo sapiens, UniProt P18031); assay: Photolabeling of SF9 cell lysate overexpressing PTP1B; format: binding; conditions: PTP1B 1% wt/wt protein
T1 construct: Infected SF9 cell lysate expressing full-length PTP1B (as a flag fusion); made in house; host or cells: SF9 insect cells (infected), used as crude lysate
T1 sequence (P18031 1-435): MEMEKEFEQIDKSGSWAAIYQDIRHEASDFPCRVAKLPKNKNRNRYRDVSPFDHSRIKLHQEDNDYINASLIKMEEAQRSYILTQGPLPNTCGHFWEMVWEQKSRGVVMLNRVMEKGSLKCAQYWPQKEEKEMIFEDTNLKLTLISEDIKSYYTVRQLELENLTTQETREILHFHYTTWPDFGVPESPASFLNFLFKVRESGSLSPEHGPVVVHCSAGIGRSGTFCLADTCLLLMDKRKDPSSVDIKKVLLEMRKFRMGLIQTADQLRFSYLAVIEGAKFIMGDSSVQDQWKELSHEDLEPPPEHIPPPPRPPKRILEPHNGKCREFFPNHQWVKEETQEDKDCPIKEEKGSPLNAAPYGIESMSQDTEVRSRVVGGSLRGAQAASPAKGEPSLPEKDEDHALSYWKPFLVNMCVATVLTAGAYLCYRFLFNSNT
Source text: Protein tyrosine phosphatases used in this study were expressed and purified using published procedures, as follows: (a) Flag-PTP1B (residues 1-320 as a flag fusion), Huyer et al. (29). (b) Flag-TCPTP (residues 1-281 as a flag fusion), Asante-Appiah et al. (30). (c) Flag-CD45 (residues 556-1268 as a flag fusion), Wang et al. (31). (d) Mutant C215S-PTP1B (residues 1-320 as a gst fusion), Skorey et al. (28). (e) Infected SF9 cell lysate expressing full-length PTP1B (as a flag fusion), Cromlish et al. (25). For studies using H2O2-inactivated Flag-PTP1B, 100 μl of 2 μg/ml PTP1B was incubated with 100 μl of 1 mM or 20 mM H2O2 for 15 min to obtain 50% or 100% inactivated enzyme respectively as determined by the enzyme kinetic assay.
All photolabeling experiments with purified enzymes or SF9 cell lysate overexpressing PTP1B were conducted in 96-well polystyrene plates in 50 μl BisTris buffer (50 mM BisTris pH 6.3, 2 mM EDTA, 1 mM DMH) containing enzyme (in BisTris buffer with 20% glycerol, 0.01% Triton X-100) or lysate and Example 9 (in water) or Example 1 (in water) at various concentrations and shaken for 1 min at room temperature. […] Autoradiography of the dried, coommassie-stained gel was done using Phosphorimaging (Molecular Devices) or by x-ray film (BioMax MS with intensifier screen, Kodak) and quantified by densitometry. […]

[2] = Photolysis of the probes in water (time course, quantum yield); format: physicochemical; conditions: chemical actinometry; absorbance at 345 and 350 nm for Examples 9 and 1
Experimental: A time course for photolysis of the probes in water was determined by measuring product formation by HPLC-MS. […] Based on the time course of photolysis of an aqueous probe with a 40 W lamp, t1/2 values of about 2 min were measured using the 40 W lamp. When a 450 W lamp was used, the t1/2 was reduced to less than 30 sec.
The quantum yield of the photoprobes was determined from the number of photons absorbed and the number of moles of photolysis product that were formed. The number of photons absorbed was determined by chemical actinometry, using the method of Parker (26). The moles of irradiated product produced over time was measured by measuring the absorbance at 345 and 350 nm for Examples 9 and 1 respectively. The quantum yield was calculated to be 0.83 and 0.74 for Examples 9 and 1 respectively.

[3] = biological target: T2, PTP1B in HEPG2 cell lysate (Homo sapiens, UniProt P18031); assay: Labeling of endogenous PTP1B in HEPG2 cell lysate; format: binding
T2 construct: Labeling of Endogenous PTP1B in HEPG2 Cell Lysate; endogenous in cells; host or cells: HepG2 (human hepatoma, ATCC)
T2 sequence (P18031 1-435): T1 sequence (P18031 1-435)

[4] = biological target: T3, PTP1B in HEPG2 whole cells (Homo sapiens, UniProt P18031); assay: Labeling of endogenous PTP1B in HEPG2 whole cells; format: cell-based
T3 construct: Labeling of Endogenous PTP1B in HEPG2 Cell Lysate; endogenous in cells; host or cells: HepG2 (human hepatoma, ATCC)
T3 sequence (P18031 1-435): T1 sequence (P18031 1-435)
Experimental: Human hepatoma cells (HepG2) were obtained from American Type Culture Collection and maintained in regular MEM containing 10% FBS and 1% antibiotics at 37° C., 5% CO2. For photoprobe experiments, cells (2×10^4) were grown until 80% confluence in 6-well plates and serum starved for 14 hours by incubating in MEM with 1% antibiotics without FBS.
HEPG2 cells were grown to ˜80% confluency in 6-well dishes. Media was removed and washed twice with Hanks-Hepes buffer (15 mM Hepes). For HepG2 lysate studies, the cells were lysed on ice for 15 minutes using 1 ml lysate buffer (50 mM Tris pH 7.4, 150 mM NaCl, 1% Triton X-100, 5 mM EDTA, 5 mM DTT, Complete™ protease inhibitor tablet). […] The protein concentration of the lysates was determined by the method of Lowry (detergent compatible).
PTP1B was immunoprecipitated from HepG2 cell lysates (1 ml of 1 mg/ml) using 3.5 ug of anti-PTP1B antibody (BDT) overnight at 4° C. with rotation. […] For autoradiogram detection of radioactivity, the gels were dried and exposed to BioMax MS film with an intensifying screen at −80° C. Protein bands were quantified using a scanning densitometer (Bio-Rad).
The compound of Example 1 at various concentrations was incubated with HEPG2 whole cells for 30 min and was irradiated on ice for 15 min. The cells were then lysed, and labeled PTP1B was measured after immunoprecipitation. […]

[5] = biological target: T4, purified Flag-PTP1B (Homo sapiens, UniProt P18031); assay: Photolabeling of purified enzyme using radioactive photoprobes; format: binding
T4 construct: Flag-PTP1B (residues 1-320 as a flag fusion); made in house
T4 sequence (P18031 1-320): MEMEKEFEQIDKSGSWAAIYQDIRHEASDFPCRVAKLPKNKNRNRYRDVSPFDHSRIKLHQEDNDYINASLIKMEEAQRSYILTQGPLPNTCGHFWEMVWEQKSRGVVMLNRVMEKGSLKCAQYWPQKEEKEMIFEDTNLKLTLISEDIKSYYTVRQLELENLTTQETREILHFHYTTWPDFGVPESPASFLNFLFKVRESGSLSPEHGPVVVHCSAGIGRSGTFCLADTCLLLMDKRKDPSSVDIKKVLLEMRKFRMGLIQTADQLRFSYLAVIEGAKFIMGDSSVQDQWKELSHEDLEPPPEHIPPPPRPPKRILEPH
Experimental: (§1) All photolabeling experiments with purified enzymes or SF9 cell lysate overexpressing PTP1B were conducted in 96-well polystyrene plates in 50 μl BisTris buffer (50 mM BisTris pH 6.3, 2 mM EDTA, 1 mM DMH) containing enzyme (in BisTris buffer with 20% glycerol, 0.01% Triton X-100) or lysate and Example 9 (in water) or Example 1 (in water) at various concentrations and shaken for 1 min at room temperature. For competition studies, BzN-EJJ-AMIDE at various concentrations was added prior to the addition of the probes. The samples were then placed on ice for 5 min and irradiated with the 40 watt lamp at the standard 10 cm distance for 15 minutes. The irradiated samples were quenched with SDS sample buffer and SDS-PAGE electrophoresis was conducted using 10% Tris-glycine gels (27). Autoradiography of the dried, coommassie-stained gel was done using Phosphorimaging (Molecular Devices) or by x-ray film (BioMax MS with intensifier screen, Kodak) and quantified by densitometry.
(§2) To study the labeling of PTP1B under physiological concentrations that exist in cells and tissues, ^125I -radiolabeled versions of Examples 9 and 1 were synthesized. Purified PTP1B was incubated with the photoprobe for 5 min and was then irradiated for 20-30 min on ice with a 40 W low UV lamp. The labeled enzyme was detected by phosphorimage (Molecular Devices) or x-ray film (BioMax MS with intensifier screen) from a SDS-PAGE gel after electrophoresis. From a titration of the purified PTP1B and probe, a detection limit for the two probes of Examples 9 and 1 were determined to be about 5 and 0.2 nM respectively, as detected by phosphorimaging. […] To determine if the probes were specific for PTP1B in the presence of other proteins, the probes were irradiated with an SF9 cell-line containing overexpressed PTP1B (1% wt/wt protein) (25). […] A time-course for irradiation was determined. For probe concentrations less than 20 nM, maximum labeling occurred within 10 min.
(§3) An estimate of the efficiency of labeling was measured by comparing the maximum signal obtained with 7 nM Example 9 or 7 nM Example 1 with purified Flag-PTP1B and the signal obtained with 7 nM Example 9 or Example 1 after gel electrophoresis of the probe alone. Efficiencies of 9 and 11% were measured for Examples 9 and 1 respectively.

[6] = system: purified Flag-PTP1B; assay: as above; format: binding; conditions: heat denaturation
Experimental: as §1, §2, §3

SMILES: NC(=O)[C@H](Cc1ccc(C(F)(F)P(=O)(O)O)c(Br)c1)NC(=O)[C@H](Cc1ccc(C(F)(F)P(=O)(O)O)c(Br)c1)NC(=O)c1cc(I)cc(C2(C(F)(F)F)N=N2)c1 [Example 1, Tetraamnionium 3-bromo-4-(difluoro(phosphonato)methyl)-N-(3-iodo-5-(3-(trifluoromethyl)-3H-diaziren-3-yl)benzoyl)-L-phenylalanyl-3-bromo-4-(difluoro(phosphonato)methyl)-L-phenylalaninamide]
- labeling of SF9 overexpressed PTP1B [1]: labeled SF9 overexpressed PTP1B
- quantum yield [2]: 0.74
- probe concentration at saturation of PTP1B ([3]; 0.04-5 nM labeled probe, 200 μl lysate (2.5 mg/ml), immunoprecipitation): around 0.6 nM
- labeled immunoprecipitated PTP1B detectable ([3]; x-ray film): 0.04 nM
- share of cell-associated probe that labeled PTP1B ([4]; 5 nM probe, HEPG2 whole cell): 1%
- probe concentration at saturation of PTP1B labeling ([4]; 30 min incubation, irradiated on ice 15 min): around 10 nM
- efficiency of labeling ([5]; 7 nM probe, purified Flag-PTP1B, vs probe alone after gel electrophoresis): 11%
- labeled enzyme detectable ([5]; 125I-radiolabeled probe, X-ray film with Biomax intensifier): ≤ 0.1 nM
- detection limit of labeled PTP1B ([5]; 125I-radiolabeled probe, purified PTP1B, phosphorimaging): ~0.2 nM
- labeling of heat-denatured PTP1B or C215S mutant [6]: could not be labeled
